Earlier results, collected in patent US20240269252A1, “COMPOSITIONS FOR INDUCING AN IMMUNE RESPONSE” (President and Fellows of Harvard College, priority 2017, published 2024).
Some entries share one result that the patent states for a list of compounds.

Details: in vitro, encapsulated and released in a similar manner; cited from earlier work

5′-TCCATGACGTTCCTGACGTT-3′ [CpG-ODN]
retained bioactivity: > 80%
